The record followed here is PMC8125067.

Sequences of proteins named here, by UniProt entry; tags and fusion partners are left off.
UniProt Q9UHD2: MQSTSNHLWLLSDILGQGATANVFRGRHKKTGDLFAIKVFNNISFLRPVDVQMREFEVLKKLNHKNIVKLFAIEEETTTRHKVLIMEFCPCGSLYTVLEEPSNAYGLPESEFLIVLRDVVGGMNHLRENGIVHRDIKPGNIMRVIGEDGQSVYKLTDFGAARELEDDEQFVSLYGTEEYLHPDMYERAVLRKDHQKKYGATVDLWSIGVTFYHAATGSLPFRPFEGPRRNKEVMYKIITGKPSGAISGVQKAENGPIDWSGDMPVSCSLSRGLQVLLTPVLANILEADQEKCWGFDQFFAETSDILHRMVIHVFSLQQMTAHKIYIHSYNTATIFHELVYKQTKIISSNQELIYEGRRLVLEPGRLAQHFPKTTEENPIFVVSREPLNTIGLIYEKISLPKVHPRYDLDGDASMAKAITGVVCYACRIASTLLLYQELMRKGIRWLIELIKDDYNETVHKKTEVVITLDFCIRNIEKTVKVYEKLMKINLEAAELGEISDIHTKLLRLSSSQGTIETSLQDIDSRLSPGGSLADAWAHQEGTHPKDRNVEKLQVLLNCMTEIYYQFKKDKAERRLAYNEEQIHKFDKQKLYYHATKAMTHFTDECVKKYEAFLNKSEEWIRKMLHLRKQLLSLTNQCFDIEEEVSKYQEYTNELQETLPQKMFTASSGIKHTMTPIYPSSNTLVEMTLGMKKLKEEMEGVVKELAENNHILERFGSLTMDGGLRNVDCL

No constants are given. Whether binding was seen depends on the method and setting. Binding seen in cells or lysates may run through a third protein. Binding calls can cover weak binding; strength is not graded here.

Experiment [1] concerns the target Flag-TRAF3 (TNF receptor-associated factor 3, amplified from DF-1 cells) (chicken (amplified from DF-1 cells)). The experiment is described as follows: co-IP; HEK293T co-transfected 48 h with a Flag-tagged bait and a Myc-tagged prey (in some panels with HA-UbK33, HA-UbK33R or HA-UbK11); NP-40 lysis buffer with PMSF; anti-Flag mouse MAb and protein A/G PLUS-agarose, 4°C, 4 h; blots with anti-Flag and anti-Myc rabbit PAbs.

Experiment [2] has the same target. Put plainly: co-IP; HEK293T co-transfected 48 h with Flag-TRAF3 and Myc-TBK1 along with an empty vector or a vector expressing VP3 (or VP3△CC1, with HA-UbK33); anti-Flag mouse MAb; blots with anti-Flag and anti-Myc rabbit PAbs.

Myc-TBK1 (from UniProt Q9UHD2 1-729): the binding result in experiment [1] and in experiment [2] was “binds” in each case.
